## Library screen at single concentrations

The chains behind the UniProt entries cited, without tags or fusion partners.
UniProt I6X8D2, whole entry: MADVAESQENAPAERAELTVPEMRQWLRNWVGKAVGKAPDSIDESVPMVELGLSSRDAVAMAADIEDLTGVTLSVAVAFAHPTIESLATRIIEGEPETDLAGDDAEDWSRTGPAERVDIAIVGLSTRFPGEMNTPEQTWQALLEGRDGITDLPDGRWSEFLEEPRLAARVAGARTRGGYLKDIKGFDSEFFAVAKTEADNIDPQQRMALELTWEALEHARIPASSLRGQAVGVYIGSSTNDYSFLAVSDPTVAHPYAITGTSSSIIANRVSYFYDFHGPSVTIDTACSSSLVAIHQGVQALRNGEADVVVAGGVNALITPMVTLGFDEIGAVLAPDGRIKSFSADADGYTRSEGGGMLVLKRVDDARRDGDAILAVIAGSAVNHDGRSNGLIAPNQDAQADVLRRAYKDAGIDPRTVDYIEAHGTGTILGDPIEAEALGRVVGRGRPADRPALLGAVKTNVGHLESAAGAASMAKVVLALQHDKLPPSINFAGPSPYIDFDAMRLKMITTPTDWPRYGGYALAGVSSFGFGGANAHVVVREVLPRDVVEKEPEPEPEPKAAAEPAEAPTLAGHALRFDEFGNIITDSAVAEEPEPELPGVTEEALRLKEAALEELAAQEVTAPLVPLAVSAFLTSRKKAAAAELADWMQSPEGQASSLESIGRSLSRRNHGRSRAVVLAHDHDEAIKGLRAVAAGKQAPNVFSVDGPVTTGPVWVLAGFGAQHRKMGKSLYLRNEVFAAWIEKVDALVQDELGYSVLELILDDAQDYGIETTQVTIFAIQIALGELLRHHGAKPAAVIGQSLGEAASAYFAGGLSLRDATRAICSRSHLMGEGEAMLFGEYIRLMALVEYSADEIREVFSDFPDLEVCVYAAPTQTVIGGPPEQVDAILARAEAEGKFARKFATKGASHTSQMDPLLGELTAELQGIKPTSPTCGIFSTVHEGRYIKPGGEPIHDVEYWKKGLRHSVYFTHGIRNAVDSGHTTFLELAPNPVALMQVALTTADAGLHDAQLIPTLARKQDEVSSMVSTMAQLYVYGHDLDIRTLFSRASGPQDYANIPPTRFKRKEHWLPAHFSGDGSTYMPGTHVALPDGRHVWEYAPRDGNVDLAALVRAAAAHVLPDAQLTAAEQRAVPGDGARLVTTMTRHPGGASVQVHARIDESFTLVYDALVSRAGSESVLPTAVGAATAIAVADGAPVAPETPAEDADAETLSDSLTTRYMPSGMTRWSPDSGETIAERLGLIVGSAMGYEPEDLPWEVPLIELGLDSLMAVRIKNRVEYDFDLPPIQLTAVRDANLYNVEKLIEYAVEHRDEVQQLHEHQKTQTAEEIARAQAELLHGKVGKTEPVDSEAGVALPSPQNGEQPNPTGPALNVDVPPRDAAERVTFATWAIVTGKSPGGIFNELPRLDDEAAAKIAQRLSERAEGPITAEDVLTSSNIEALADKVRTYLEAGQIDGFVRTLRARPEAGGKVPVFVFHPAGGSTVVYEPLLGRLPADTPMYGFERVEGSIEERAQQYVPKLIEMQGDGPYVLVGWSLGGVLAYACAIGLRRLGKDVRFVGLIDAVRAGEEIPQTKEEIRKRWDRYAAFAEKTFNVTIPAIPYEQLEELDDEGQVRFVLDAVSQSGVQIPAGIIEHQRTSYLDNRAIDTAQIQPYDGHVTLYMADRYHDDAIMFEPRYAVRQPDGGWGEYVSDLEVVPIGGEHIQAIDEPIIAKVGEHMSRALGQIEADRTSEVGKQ

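Polyketide synthase Pks13, Mycobacterium tuberculosis (UniProt I6X8D2). Enzyme assay of the thioesterase domain of polyketide synthase 13; the read-out is not stated. Compounds at 30 µM. Higher reads as stronger inhibition (inferred from which compounds were picked for retests). About 67,000 compounds were tested under these conditions; 0.46% (about 300) showed 50% or more at least once.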

Each number is a percent effect as filed.
How 0% and 100% were set is not recorded. Most values in the screen are low, and negative values occur.
The compounds are a random part of those screened.

CC(C)(C)NC(=O)CN1CCCN(Cc2ccc(C#N)cc2)CC1 read -31.37%.
Cc1ccc(-c2ncc(C(=O)N3CCCN4CCC[C@H]4C3)c(O)n2)cc1 read -0.3462%.
CCS(=O)(=O)N1C[C@H]2CN(Cc3ccc(OC)cc3)C(=O)[C@H]2C1 read -7.481%.
CS(=O)(=O)N1C[C@H](NC(=O)c2ccno2)[C@@H]2OCCC[C@@H]21 read -11.81%.
CN(Cc1cccc(O)c1)C(=O)c1ccc(CCC(C)(C)O)cc1 read -0.5582%.
CC(C)c1nc(CN(C)C(=O)CNC(N)=O)cs1 read -1.981%.
NC(=O)c1cccc(OCCC(=O)NC2CCc3c(F)cccc32)c1 (centres unmarked) read -21.4%.
CN1CCCN(C[C@@H]2CN(c3nc(C(N)=O)cs3)C[C@@H]2CO)CC1 read -5.233%.
CCC(O)CNC(=O)C1(N(C)Cc2ccccc2)Cc2ccccc2C1 (centres unmarked) read -53.77%.
CCc1ccc(-c2noc(Cn3nc(C(N)=O)ccc3=O)n2)cc1 read -10.35%.
CC(CO)NC(=O)c1ccc(NCc2cc(C#N)ccc2F)cc1 (centres unmarked) read -21.53%.
CCOc1ncccc1CNC(=O)N1CCC(n2cncn2)CC1 read -3.961%.
COc1ccc(N2CCN(Cc3noc(CC(C)C)n3)C(C)C2=O)cc1 (centres unmarked) read 7.778%.
COC(=O)CN(C(=O)c1cccc(F)c1Cl)c1cccc(C)n1 read 0.2357%.
Cc1cc(C)c(S(=O)(=O)Nc2c(C)nc(N(C)C)nc2C)cc1C read -29%.
COc1ccc(C(=O)C2CCCN(Cc3cccc(F)c3)C2)c(OC)c1 (centres unmarked) read -32.3%.
Cc1nn(C)c2nc(NC(C)c3nnn[nH]3)sc12 (centres unmarked) read -25.41%.
CNC(=O)c1n[nH]c2c1C(c1cccc3c1OC(C)(C)C3)CC(=O)N2 (centres unmarked) read -42.5%.
CCn1nc(C(C)C)cc1C(=O)NCCCOC read -12.09%.
c1ccc(C2CCCN(Cc3cc4n(n3)CCNC4)CC2)cc1 (centres unmarked) read -13.28%.
Cc1cc2n(n1)CC(CNC1CCN(Cc3ccccc3C)CC1)CN2 (centres unmarked) read -30.17%.
COc1c(CNC2CCc3cc(C)ccc32)c(C)nn1C (centres unmarked) read -22.86%.
CCn1cnnc1CNC(=O)c1ccc(Br)cc1F read 9.919%.
CCn1cc(N2Cc3nc(N)ncc3C2=O)cn1 read -11.41%.
O=S(=O)(NCCN1CC=CC1)c1cncc(Cl)c1 read -35.13%.
N#Cc1cnc2ccccc2c1N1CCNCC1 read -22.25%.
CN(Cc1nnc(C2CC2)o1)C1CCN(CCCc2cnn(C)c2)C1 (centres unmarked) read -8.504%.
CC(C)C(NC(=O)Nc1ccccn1)c1cccs1 (centres unmarked) read -19.01%.
NC(=O)N1CCC2(CC1)CN(c1ncccn1)CCO2 read -3.936%.
Cc1cc(C)nc(NCCC(=O)Nc2ccc(Cn3cncn3)cc2)n1 read -11.31%.
COC(=O)C1CN(CC(=O)Nc2ccccc2Cl)c2ccccc21 (centres unmarked) read -17.08%.
CC(=O)N(CCc1ccccc1)CC(=O)NC1(C#N)CC1 read -14.73%.
Cc1cccc(=O)n1CCCNc1ncnc2c1CCNCC2 read -0.2186%.
Cc1cc(C)n(CCN2CCN(C(=O)c3cc4ccccc4o3)CC2)n1 read -38.62%.
COc1ccc(CN2CCSCC2)c(OC)c1 read -5.469%.
Cc1nn(C)c2nc(-c3ccccn3)nc(NCCCOC(C)C)c12 read -21.85%.
COCC1COCCC12CCN(C(=O)CCc1ccccc1C)CC2 (centres unmarked) read 10.22%.
N#CC1(C(=O)NCC2CCC3(CCNCC3)O2)CC1 (centres unmarked) read -24.09%.
COCCN(Cc1ccc(C)o1)C(=O)Nc1nnc(C(F)F)s1 read -2.399%.
CCC(CO)N(Cc1cccc(O)c1)Cc1ccccc1C (centres unmarked) read -26.02%.
CN(c1cccnc1N1CCCC1)S(=O)(=O)c1cccnc1 read -2.432%.
CCc1cnc(N)nc1NCCCn1nc(C)nc1C read -22.12%.
COc1ncc(CN2CC[C@@](C)(O)[C@H](Oc3cccc(F)c3)C2)cn1 read -0.5546%.
COCc1nc(N(C)C)ncc1C(=O)OC read -20.56%.
Cc1nnc2n1CC(CNc1cnc3ccccc3n1)CC2 (centres unmarked) read -24.28%.
CC(c1ccc(Cl)cc1)N1CCN(CCNS(C)(=O)=O)CC1 (centres unmarked) read -18.44%.
Cc1[nH]c2c(F)cccc2c1CC(=O)NCCCc1csc(N)n1 read -13.93%.
CCCc1noc2ncc(C(=O)N3CCCC3c3cnn(C)c3)cc12 (centres unmarked) read 2.151%.
Cc1nnsc1-c1nnc2sc(C(C)C)nn12 read -12.64%.
Cc1cc(-c2nc(-c3ccccn3)nn2C2CCN(C)CC2)nc(C)n1 read -5.515%.
CCCc1cc(=O)[nH]c(SCc2ccccn2)n1 read -15.3%.
CN1CCN(Cc2nc3ccccc3[nH]2)[C@H]2CS(=O)(=O)C[C@H]21 read -21.28%.
CCN(CC)C(CNC(=O)c1ccc(S(C)(=O)=O)cc1)c1ccco1 (centres unmarked) read -16.56%.
c1ccc(N2CCC3(COCCN(c4ncccn4)C3)C2)nc1 (centres unmarked) read 11.41%.
Cc1ncc(CN)c(-c2cn(C)c3ccccc23)n1 read 139.9%.
CCCN1CCN(C(=O)c2cc3ccccc3cn2)[C@H]2CS(=O)(=O)C[C@H]21 read 4.132%.

The values are deposited in ChEMBL (CHEMBL3988442, “University of Dundee, Small-Polar-MMV Screening Library” (2021)).